# According to PubChem BioAssay AID540256 (National Center for Advancing Translational Sciences (NCATS), 2011):
# Among all 300,000 compounds or so, about 3,700 (1.2%) were called active. Inconclusive results, whose numbers are uncertain, are shown with a selection of clear calls. The call rests on the fitted dose curve; tested in HEK293 cells. Potencies of inconclusive entries are doubtful fits and often do not repeat.
# Experiment: qHTS for Inhibitors of binding or entry into cells for Lassa Virus; further: nearly all actives have a fitted effect of over 50% in size
# Conditions: Lassa virus pseudotype entry inhibition, cell reporter; series mostly up to 37.9 µM
# Potency means the concentration at half of the fitted maximal effect.
row,Compound,Potency
1,Cc1ccc(-c2nnc(Nc3ccc(Cl)cc3)c3ccccc23)cc1S(=O)(=O)N1CCOCC1,"inconclusive: 0.562 µM [inhibitor, full curve, poor fit]"
2,CCN(CC)CCN(C(=O)CN1C(=O)c2ccccc2C1=O)c1nc2cc3c(cc2s1)OCO3,inactive
3,O=C(CCc1ccccc1)NCCc1csc(-c2cccc(F)c2)n1,inactive
4,Cc1cc(NC(=O)c2ccc(S(=O)(=O)N3CCc4ccccc43)cc2)no1,"inconclusive: 18.3 µM [inhibitor, partial curve, poor fit]"
5,Cc1cc(-c2nnc(SCC(=O)c3ccc(Cl)cc3)o2)no1,"inconclusive: 10 µM [activator, partial curve, poor fit]"
6,Cc1nn(Cc2ccc(F)cc2)c(Cl)c1/C=N/NC(=O)c1ccccc1,"inconclusive: 6.31 µM [inhibitor, partial curve, poor fit]"
7,Cc1ccc(C)c(NC(=O)C2CCN(c3nn4c(=O)cc(C)nc4s3)CC2)c1,"inconclusive: 2 µM [activator, full curve]"
8,CCN1CCN(Cc2nc3cc(NC(=O)c4ccccc4[N+](=O)[O-])ccc3n2CC)CC1,inactive
9,Cc1ccc(C)c(S(=O)(=O)NCc2ccc(C(=O)NCc3ccco3)cc2)c1,inactive
10,O=C(Nc1ccc(NC(=S)NC(=O)c2ccccc2Cl)cc1)c1cccc(Cl)c1,"inconclusive: 12.6 µM [inhibitor, partial curve]"
11,COc1ccc(NC(=O)Cn2cc(C#N)c3ccccc32)cc1,inactive
12,Cc1cc(C)c2c(-n3cccc3)c(C(=O)NCCCN3CCCCC3)sc2n1,inactive
13,COc1ccccc1OCCCn1cc(C(=O)c2ccco2)c2ccccc21,"inconclusive: 0.82 µM [activator, full curve, poor fit]"
14,O=c1[nH]c2ccccc2cc1CN(c1ccccc1)S(=O)(=O)c1ccccc1,inactive
15,CC(=NCc1ccc2c(c1)OCO2)c1c(O)n(C)c(=O)n(C)c1=O,inactive
16,CC1CCC(N2CC(=O)N(C3CCCC3)C(c3ccc(Cl)cc3)C2=O)CC1 (centres undefined),inactive
17,CC(=O)Nc1cccc(/C(C)=N/NC(=O)c2cc(-c3ccncc3)nc3ccccc23)c1,"inconclusive: 0.501 µM [inhibitor, full curve, poor fit]"
18,O=C(CCCC(=O)N(c1cccc(F)c1)C(C(=O)NC1CCCC1)c1ccc(O)cc1)Nc1ccccn1 (centres undefined),"inconclusive: 2.82 µM [inhibitor, partial curve, poor fit]"
19,COc1ccc(S(=O)(=O)N2CCOCC2)cc1NC(=O)COC(=O)CC1CC2CCC1C2 (centres undefined),inactive
20,CN(C)c1ccc(C(=O)NCC2CCCO2)cc1 (centres undefined),"inconclusive: 11.6 µM [activator, partial curve]"
21,c1ccc(-c2[nH]ncc2-c2ccnc(-c3ccc(OCCn4ccnc4)cc3)c2)nc1,"inconclusive: 31.5 µM [inhibitor, single point]"
22,Cc1ccc(-c2[nH]c3ccccc3c2SCCNC(=O)c2ccc(S(=O)(=O)N3CCOCC3)cc2)cc1,"inconclusive: 23.1 µM [inhibitor, partial curve, poor fit]"

# 3 entries from above, as tab-separated lines.
row	Compound	Potency
1	Cc1ccc(-c2nnc(Nc3ccc(Cl)cc3)c3ccccc23)cc1S(=O)(=O)N1CCOCC1	inconclusive: 0.562 µM [inhibitor, full curve, poor fit]
3	O=C(CCc1ccccc1)NCCc1csc(-c2cccc(F)c2)n1	inactive
14	O=c1[nH]c2ccccc2cc1CN(c1ccccc1)S(=O)(=O)c1ccccc1	inactive

# The listing continues.

row,Compound,Potency
1,CCn1cc(S(=O)(=O)NC(C)c2cc(OC)ccc2OC)cn1 (centres undefined),"inconclusive: 5.62 µM [activator, single point]"
2,CC1=CN2C(=N)/C(=C/c3cn(CCCOc4ccccc4C)c4ccccc34)C(=O)N=C2S1,"inconclusive: 1.64 µM [activator, full curve]"
3,O=C(Nc1ccc(Cl)c(S(=O)(=O)N2CCOCC2)c1)c1cc(-c2ccccn2)nc2ccccc12,"inconclusive: 8.91 µM [inhibitor, partial curve, poor fit]"
4,COc1cccc(CNC(=O)C(C)n2ccc3cc(S(=O)(=O)N4CCCCCC4)ccc32)c1 (centres undefined),inactive
5,CCc1ccc(N2CCN(S(=O)(=O)CC34CCC(CC3=O)C4(C)C)CC2)cc1 (centres undefined),"inconclusive: 14.1 µM [inhibitor, partial curve]"
6,O=C1CCC(c2ccccc2)=NN1Cc1c(F)cccc1Cl,inactive
7,Cc1ccc(C(=O)Nc2cccc(C(=O)N3CCN(C)CC3)c2)cc1,inactive
8,CN1CCN(c2ccccc2NC(=O)c2cc3ccccc3o2)CC1,inactive
9,CCCN1CCCC(C(=O)c2cc(C)c(OC)c(C)c2)C1 (centres undefined),"inconclusive: 0.282 µM [inhibitor, partial curve, poor fit]"
10,Oc1ccc(CN2CCc3ccccc3C2)c2cccnc12,active: 2.59 µM
11,COc1ccc(NC(=O)c2csc3c2CCCC3)cc1,"inconclusive: 18.3 µM [inhibitor, single point]"
12,COc1ccc(-c2nnc(NC(=O)c3ccc(S(=O)(=O)N4COCC4(C)C)cc3)o2)cc1,"inconclusive: 22.4 µM [inhibitor, partial curve, poor fit]"
13,COc1cc(OC)nc(NC(=O)CN2CCN(c3ccc(F)cc3)CC2)n1,"inconclusive: 23.1 µM [inhibitor, single point]"
14,CCOC(=O)c1c(NC(=O)CCN2C(=O)c3ccccc3C2=O)sc(C(=O)OC(C)C)c1C,inactive
15,CN1CCO/C1=C(\C(Cl)=C(Cl)Cl)[N+](=O)[O-],inactive
16,O=C(c1ccc([N+](=O)[O-])s1)N1CCCc2ccccc21,"inconclusive: 22.4 µM [inhibitor, single point]"
17,CC1CC(C)(C)NC(=S)N1CC(=O)N(C)Cc1ccccc1 (centres undefined),"inconclusive: 3.55 µM [inhibitor, single point]"
18,Cc1cc(C)c2c(N)c(-c3nc4ccccc4[nH]3)sc2n1,"inconclusive: 2.82 µM [activator, partial curve, poor fit]"
19,CCCC(O)c1nc2ccccc2n1CCCCOc1ccc(OC)cc1 (centres undefined),inactive
20,COc1ccc(C(=O)/C=C/c2ccc(OC)c(CN3CCOCC3)c2)cc1,"inconclusive: 8.91 µM [inhibitor, partial curve, poor fit]"
21,O=S1(=O)Nc2c(ccc3cccnc23)-c2ccccc21,"inconclusive: 8.2 µM [inhibitor, partial curve, poor fit]"
22,Oc1[nH]c2ccccc2c1N=NC(=S)NCC1CCCO1 (centres undefined),"inconclusive: 20.6 µM [inhibitor, single point]"
